{
  "source": "patent US20190262453A1",
  "about": "“DESIGN AND COMPOSITION OF CELL-STABILIZED PHARMACEUTICAL FORMULATIONS” (THE REGENTS OF THE UNIVERSITY OF MICHIGAN, priority 2016, published 2019)",
  "origin": "cited, not measured here",
  "details": "in vivo; cited from earlier work",
  "data": [
    {"smiles": "CN1CC[C@]23c4c5ccc(O)c4O[C@H]2[C@@H](O)C=C[C@H]3[C@H]1C5", "note": "[Morphine]", "values": [
      {"measurement": "Vd", "result": 3.3, "unit": "L/kg"}
    ]}
  ]
}
